According to article PMC3496707:
No constants are given. Whether binding was seen depends on the method and setting. For part of these data: Binding seen in cells or lysates may run through a third protein. Some entries that bind do so weakly or less than the wild type. For part of these data: Where a sequence is shown, tags or fusion partners need not be part of it.

By UniProt entry, the sequences of proteins in these tests, tags left out. Residues count along the entry.
UniProt P14873, residues 2203-2464: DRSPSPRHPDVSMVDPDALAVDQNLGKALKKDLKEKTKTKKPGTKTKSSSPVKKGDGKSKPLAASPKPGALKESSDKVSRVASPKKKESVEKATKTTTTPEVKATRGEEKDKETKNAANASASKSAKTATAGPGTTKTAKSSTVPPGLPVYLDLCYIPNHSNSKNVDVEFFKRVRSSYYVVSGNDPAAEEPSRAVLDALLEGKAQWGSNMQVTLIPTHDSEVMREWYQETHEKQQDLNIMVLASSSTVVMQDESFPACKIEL
UniProt P15205, residues 2200-2461: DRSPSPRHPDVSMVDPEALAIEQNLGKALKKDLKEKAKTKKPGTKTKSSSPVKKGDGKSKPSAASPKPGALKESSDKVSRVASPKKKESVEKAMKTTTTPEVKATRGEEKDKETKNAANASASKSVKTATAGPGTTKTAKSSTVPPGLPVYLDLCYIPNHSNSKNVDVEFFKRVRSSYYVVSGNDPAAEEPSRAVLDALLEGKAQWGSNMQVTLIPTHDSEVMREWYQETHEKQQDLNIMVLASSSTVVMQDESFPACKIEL
UniProt P02769, residues 25-607: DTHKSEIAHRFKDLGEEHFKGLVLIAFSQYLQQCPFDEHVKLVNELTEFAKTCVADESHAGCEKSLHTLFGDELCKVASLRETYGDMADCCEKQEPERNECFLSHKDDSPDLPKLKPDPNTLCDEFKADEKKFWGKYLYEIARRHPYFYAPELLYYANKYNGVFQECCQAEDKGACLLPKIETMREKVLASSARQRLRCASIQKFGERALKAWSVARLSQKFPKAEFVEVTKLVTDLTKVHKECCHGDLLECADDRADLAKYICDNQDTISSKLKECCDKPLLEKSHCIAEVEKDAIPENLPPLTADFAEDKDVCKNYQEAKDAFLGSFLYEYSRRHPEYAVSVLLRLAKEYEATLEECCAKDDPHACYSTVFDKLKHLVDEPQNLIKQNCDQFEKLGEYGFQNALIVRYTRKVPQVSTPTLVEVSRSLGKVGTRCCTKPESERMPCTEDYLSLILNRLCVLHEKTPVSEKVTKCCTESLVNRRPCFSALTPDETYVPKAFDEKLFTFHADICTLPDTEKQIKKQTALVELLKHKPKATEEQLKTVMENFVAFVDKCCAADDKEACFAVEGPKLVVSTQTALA

B1: α1-syntrophin, endogenous in mouse brain (protein, UniProt Q61234 1-503)
chain: MASGRRAPRTGLLELRCGAGSGAGGERWQRVLLSLAEDALTVSPADGEPGPEPEPAQLNGAAEPGAAPPQLPEALLLQRRRVTVRKADAGGLGISIKGGRENKMPILISKIFKGLAADQTEALFVGDAILSVNGEDLSSATHDEAVQALKKTGKEVVLEVKYMKEVSPYFKNSAGGTSVGWDSPPASPLQRQPSSPGPQPRNLSEAKHVSLKMAYVSRRCTPTDPEPRYLEICAADGQDAVFLRAKDEASARSWAGAIQAQIGTFIPWVKDELQALLTATGTAGSQDIKQIGWLTEQLPSGGTAPTLALLTEKELLFYCSLPQSREALSRPTRTAPLIATSSAHRLVHSGPSKGSVPYDAELSFALRTGTRHGVDTHLFSVESPQELAAWTRQLVDGCHRAAEGIQEVSTACTWNGRPCSLSVHIDKGFTLWAAEPGAARAMLLRQPFEKLQMSSDDGTSLLFLDFGGAEGEIQLDLHSCPKTMVFIIHSFLSAKVTRLGLLA
B2: NH2-terminally 6xHis-tagged full length mouse α1-syntrophin (protein, UniProt Q61234 1-503)
chain: B1 chain
modifications: Eu3+-labeled (in the microtiter plate assay only)

Key:
[1] = target: LC1 (light chain of MAP1B), endogenous in wild-type mouse brain (mouse (endogenous in brain)) (UniProt P14873); experiment: co-IP; wild-type mouse brain extracts, precipitated with anti-LC1; not shown
[2] = target: myc-tagged LC1 expressed in the brain of transgenic mice (UniProt P15205); experiment: co-IP; brain extracts of 3-week-old transgenic mice expressing myc-tagged LC1, TEN buffer; precipitated with anti-myc, blotted with anti-syn1351
[3] = target: BSA type H1 (bovine) (UniProt P02769); experiment: microtiter plate overlay assay with Eu3+-labeled protein (time-resolved fluorescence); plates coated with 100 nM LC1 or BSA, blocked with 4% BSA, overlaid with increasing amounts of Eu3+-labeled α1-syntrophin; both purified

Binder	binding [1]	binding [2]	binding [3]
B1	binds	binds	–
B2	–	–	no binding
